Reference: article PMC11066007, “CORVET-specific subunit levels determine the balance between HOPS/CORVET endosomal tethering complexes” (Scientific Reports, 2024)
No constants are given. Whether binding was seen depends on the method and setting. Binding seen in cells or lysates may run through a third protein. Some results given as binding are weak or reduced against the parent protein; the word gives no strength. Sequences can lack the tags named with a protein.

How the values were obtained:
VPS39-FLAG = molecular target: T1, VPS39-FLAG (human, UniProt Q96JC1 1-886); assay: co-IP; anti-FLAG beads on lysates of HEK293 cells overexpressing a FLAG-tagged subunit together with untagged VPS8 or VPS41-HA; eluates analysed by western blot; lysis buffer 50 mM TRIS-HCl pH 7.5, 150 mM NaCl, 1% Triton X-100, 5 mM EDTA; 1.5 h at 4 °C
T1 construct: VPS39, human, HOPS-specific subunit; DNA region encoding the full-length protein fused with a FLAG tag; also called HOPS-specific VPS39; not shown: FLAG, N-terminal, kept
T1 sequence (looked up): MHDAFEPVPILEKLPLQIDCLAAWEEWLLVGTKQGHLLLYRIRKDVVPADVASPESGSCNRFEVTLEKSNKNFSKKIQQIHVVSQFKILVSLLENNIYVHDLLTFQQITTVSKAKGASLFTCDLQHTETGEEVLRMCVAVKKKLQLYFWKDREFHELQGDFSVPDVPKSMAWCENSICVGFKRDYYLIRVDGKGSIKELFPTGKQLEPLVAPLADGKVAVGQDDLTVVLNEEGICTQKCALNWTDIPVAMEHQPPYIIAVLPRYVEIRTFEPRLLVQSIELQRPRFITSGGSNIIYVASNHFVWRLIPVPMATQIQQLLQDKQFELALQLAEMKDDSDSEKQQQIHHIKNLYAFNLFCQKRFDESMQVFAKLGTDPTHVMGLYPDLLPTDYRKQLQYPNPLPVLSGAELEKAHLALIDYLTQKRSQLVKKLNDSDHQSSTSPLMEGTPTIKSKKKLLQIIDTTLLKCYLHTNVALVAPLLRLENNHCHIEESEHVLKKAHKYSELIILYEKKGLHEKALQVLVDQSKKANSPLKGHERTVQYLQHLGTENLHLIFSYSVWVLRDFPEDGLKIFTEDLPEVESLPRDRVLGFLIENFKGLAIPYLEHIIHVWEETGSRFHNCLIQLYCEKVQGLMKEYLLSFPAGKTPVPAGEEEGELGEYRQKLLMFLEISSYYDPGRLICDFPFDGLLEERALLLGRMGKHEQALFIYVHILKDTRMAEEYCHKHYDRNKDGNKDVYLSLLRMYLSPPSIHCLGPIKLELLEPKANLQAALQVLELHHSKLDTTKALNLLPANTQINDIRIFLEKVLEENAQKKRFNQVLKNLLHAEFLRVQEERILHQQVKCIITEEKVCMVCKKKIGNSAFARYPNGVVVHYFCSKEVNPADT

[1] = molecular target: T2, VPS18 (human (endogenous in HEK293)) (UniProt Q9P253); assay: co-IP; anti-FLAG beads on total lysates of HEK293 cells stably transfected with a FLAG-tagged specific subunit, with or without transient overexpression of the counterpart subunit (control: pCMV); endogenous VPS11 and VPS18 detected by western blot, densitometry with ImageJ; lysis buffer 50 mM TRIS-HCl pH 7.5, 150 mM NaCl, 1% Triton X-100, 5 mM EDTA; 1.5 h at 4 °C
T2 sequence: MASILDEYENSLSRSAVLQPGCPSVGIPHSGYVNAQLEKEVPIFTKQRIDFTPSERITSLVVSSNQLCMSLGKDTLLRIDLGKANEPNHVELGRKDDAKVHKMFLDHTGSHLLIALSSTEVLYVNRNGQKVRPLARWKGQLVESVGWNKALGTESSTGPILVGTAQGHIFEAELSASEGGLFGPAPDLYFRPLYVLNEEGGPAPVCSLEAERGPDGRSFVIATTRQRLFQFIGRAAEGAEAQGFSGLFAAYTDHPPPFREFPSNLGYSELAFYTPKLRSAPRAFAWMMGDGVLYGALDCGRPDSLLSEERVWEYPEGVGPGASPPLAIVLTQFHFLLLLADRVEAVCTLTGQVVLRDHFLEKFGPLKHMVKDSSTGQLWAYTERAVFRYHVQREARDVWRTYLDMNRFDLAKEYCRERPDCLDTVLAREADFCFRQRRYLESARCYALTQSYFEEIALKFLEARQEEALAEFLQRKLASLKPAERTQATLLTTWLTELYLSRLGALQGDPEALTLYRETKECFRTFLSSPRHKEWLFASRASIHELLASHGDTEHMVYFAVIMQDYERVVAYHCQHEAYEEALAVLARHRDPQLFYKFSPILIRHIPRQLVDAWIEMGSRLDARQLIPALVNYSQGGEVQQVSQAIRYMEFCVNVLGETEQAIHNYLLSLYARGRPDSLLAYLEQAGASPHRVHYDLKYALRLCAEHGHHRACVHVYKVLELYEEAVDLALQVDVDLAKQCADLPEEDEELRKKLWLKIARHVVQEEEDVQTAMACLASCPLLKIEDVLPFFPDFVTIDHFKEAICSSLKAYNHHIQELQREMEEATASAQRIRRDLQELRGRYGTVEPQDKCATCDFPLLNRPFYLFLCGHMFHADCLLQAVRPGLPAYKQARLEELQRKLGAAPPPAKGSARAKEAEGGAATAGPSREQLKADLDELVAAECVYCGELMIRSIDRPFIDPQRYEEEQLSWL

binding (VPS39-FLAG): binds
binding [1]: binds
B1: VPS8 (untagged) (protein, UniProt Q8N3P4 1-1428)
chain: MENEPDHENVEQSLCAKTSEEELNKSFNLEASLSKFSYIDMDKELEFKNDLIDDKEFDIPQVDTPPTLESILNETDDEDESFILEDPTLLNIDTIDSHSYDTSSVASSDSGDRTNLKRKKKLPDSFSLHGSVMRHSLLKGISAQIVSAADKVDAGLPTAIAVSSLIAVGTSHGLALIFGKDQNQALRLCLGSTSVGGQYGAISALSINNDCSRLLCGFAKGQITMWDLASGKLLRSITDAHPPGTAILHIKFTDDPTLAICNDSGGSVFELTFKRVMGVRTCESRCLFSGSKGEVCCIEPLHSKPELKDHPITQFSLLAMASLTKILVIGLKPSLKVWMTFPYGRMDPSSVPLLAWHFVAVQNYVNPMLAFCRGDVVHFLLVKRDESGAIHVTKQKHLHLYYDLINFTWINSRTVVLLDSVEKLHVIDRQTQEELETVEISEVQLVYNSSHFKSLATGGNVSQALALVGEKACYQSISSYGGQIFYLGTKSVYVMMLRSWRERVDHLLKQDCLTEALALAWSFHEGKAKAVVGLSGDASKRKAIVADRMVEILFHYADRALKKCPDQGKIQVMEQHFQDMVPVIVDYCLLLQRKDLLFSQMYDKLSENSVAKGVFLECLEPYILSDKLVGITPQVMKDLIVHFQDKKLMENVEALIVHMDITSLDIQQVVLMCWENRLYDAMIYVYNRGMNEFISPMEKLFRVIAPPLNAGKTLTDEQVVMGNKLLVYISCCLAGRAYPLGDIPEDLVPLVKNQVFEFLIRLHSAEASPEEEIYPYIRTLLHFDTREFLNVLALTFEDFKNDKQAVEYQQRIVDILLKVMVENSDFTPSQVGCLFTFLARQLAKPDNTLFVNRTLFDQVLEFLCSPDDDSRHSERQQVLLELLQAGGIVQFEESRLIRMAEKAEFYQICEFMYEREHQYDKIIDCYLRDPLREEEVFNYIHNILSIPGHSAEEKQSVWQKAMDHIEELVSLKPCKAAELVATHFSGHIETVIKKLQNQVLLFKFLRSLLDPREGIHVNQELLQISPCITEQFIELLCQFNPTQVIETLQVLECYRLEETIQITQKYQLHEVTAYLLEKKGDIHGAFLIMLERLQSKLQEVTHQGENTKEDPSLKDVEDTMVETIALCQRNSHNLNQQQREALWFPLLEAMMAPQKLSSSAIPHLHSEALKSLTMQVLNSMAAFIALPSILQRILQDPVYGKGKLGEIQGLILGMLDTFNYEQTLLETTTSLLNQDLHWSLCNLRASVTRGLNPKQDYCSICLQQYKRRQEMADEIIVFSCGHLYHSFCLQNKECTVEFEGQTRWTCYKCSSSNKVGKLSENSSEIKKGRITPSQVKMSPSYHQSKGDPTAKKGTSEPVLDPQQIQAFDQLCRLYRGSSRLALLTELSQNRSSESYRPFSGSQSAPAFNSIFQNENFQLQLIPPPVTED
